Reference: PubChem BioAssay AID1053208 (Peter MacCallum Cancer Centre, 2014)
Aim: 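Find knock-downs that sensitise mouse osteosarcoma cells to doxorubicin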 (primary screen). Cells: mouse osteosarcoma cells, early-passage culture from an engineered mouse model of fibroblastic bone tumour. Reagent: siRNA pool against mouse genes, 40 nM. Duration: about 120 h (48 h before drug, then 72 h with drug). Conditions: doxorubicin 100 nM for 72 h, roughly 30-40% inhibitory dose. Measured: 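Viability read as ATP luminescence after 72 h of 100 nM doxorubicin or none, duplicate wells averaged, scaled to non-targeting siRNA, then expressed as robust z-scores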. Reading the numbers: viability z-score with doxorubicin and doxorubicin viability vs non-targeting: higher = more viable cells under doxorubicin; viability z-score without drug: higher = more viable cells with knock-down alone; z-score of drug to no-drug ratio: higher = less drug sensitisation by knock-down. Rule for the call: 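a pool counts as active when its viability z-score with doxorubicin is -2 or below and its z-score without drug lies between -2 and 2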.
The deposit covers about 17,000 reagents; shown is an unselected part. Of all reagents, 788 (4.7%) were called active. 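Calls rest on z-score classes alone; an extra cut-off of viability at most 70% of control was not applied to them.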 Unmarked entries are inactive. Reagent sequences are not shown.

no.	Gene	PubChem SID	combined z-score class	viability z-score with doxorubicin	viability z-score without drug	z-score of drug to no-drug ratio	doxorubicin viability vs non-targeting
1	Prmt8	SID152291537	no change with or without drug	0.34	-0.17	0.56	0.97
2	Ngfr	SID152267933	no change with or without drug	0.9	-1.18	2.02	1.02
3	Cdh5	SID152332953	no change with or without drug	-0.9	0.84	-1.35	0.86
4	Aldh1l1	SID152318076	no change with or without drug	0	1.18	-0.67	0.94
5	Smim11	SID152269672	no change with or without drug	-1.57	-0.84	-1.01	0.8
6	Flrt1	SID152299503	no change with or without drug	0.67	0.67	0.34	1
7	Arglu1	SID152271594	low cell count with doxorubicin only (active)	-2.92	-0.84	-2.47	0.68
8	Ugt2a1	SID152286515	no change with or without drug	-1.12	1.18	-1.8	0.84
9	Pard6g	SID152310078	high cell count without drug only	1.35	2.36	-0.11	1.06
10	Rmdn2	SID152302993	no change with or without drug	0.34	1.18	-0.34	0.97
11	Isg15	SID152262268	no change with or without drug	1.12	0.51	0.9	1.04
12	Sgsh	SID152295712	no change with or without drug	1.24	1.52	0.34	1.05
13	Psrc1	SID152324238	no change with or without drug	-1.12	-0.17	-1.01	0.84
14	Ube2v2	SID152341695	no change with or without drug	-0.79	0.51	-1.01	0.87
15	Cnr1	SID152333004	no change with or without drug	-0.45	-0.17	-0.22	0.9
16	Ppp1r1b	SID152293070	no change with or without drug	1.35	0.67	1.01	1.06
17	BC051665	SID152301545	low cell count without drug only	-0.9	-2.53	1.01	0.86
18	Or2ak6	SID152337782	no change with or without drug	0	-1.85	1.57	0.94
19	Anp32b	SID152293358	no change with or without drug	-0.56	-0.17	-0.34	0.89
20	Psmd14	SID152287968	no change with or without drug	-0.67	-0.84	0	0.88
21	Hmgb4	SID152321554	low cell count with doxorubicin only (active)	-2.25	0	-2.25	0.74
22	D630004N19Rik	SID152262477	no change with or without drug	-0.45	1.52	-1.24	0.9
23	Pmm2	SID152274339	no change with or without drug	0.67	0.67	0.34	1
24	Acox2	SID152312532	no change with or without drug	-1.12	-0.51	-0.79	0.84
25	PLEKHK1	SID152337992	no change with or without drug	0	0	0.11	0.94
26	Asb8	SID152298943	no change with or without drug	-0.22	-1.18	0.79	0.92
27	Gng11	SID152334104	high cell count without drug only	0.11	2.02	-1.01	0.95
28	Slc20a2	SID152328176	no change with or without drug	-1.8	0.17	-1.91	0.78
29	Zfp472	SID152334434	no change with or without drug	0.34	-0.17	0.56	0.97
30	Corin	SID152292025	no change with or without drug	-1.8	0	-1.8	0.78
31	Il1rapl2	SID152270257	no change with or without drug	-0.56	-1.18	0.34	0.89
32	Ly6m	SID152333642	no change with or without drug	-1.12	0.51	-1.35	0.84
33	Krtap9-1	SID152260041	low cell count with doxorubicin only (active)	-2.02	-1.18	-1.35	0.76
34	Exoc8	SID152332137	no change with or without drug	-0.22	0.34	-0.34	0.92
35	Pnpla6	SID152288109	no change with or without drug	0.22	-1.18	1.24	0.96
36	Arhgef18	SID152275415	low cell count with doxorubicin only (active)	-2.47	-1.01	-1.91	0.72
37	Defb2	SID152261344	no change with or without drug	0	0.34	-0.11	0.94
38	Tspan7	SID152299753	no change with or without drug	-1.35	0.84	-1.8	0.82
39	Airn	SID152327131	no change with or without drug	-0.56	-0.84	0.11	0.89
40	Nt5dc1	SID152263490	no change with or without drug	0.22	0.51	0	0.96
41	Gm20735	SID152273690	low cell count with doxorubicin only (active)	-2.02	-1.35	-1.24	0.76
42	Rdh19	SID152333390	low cell count with and without drug	-8.32	-8.26	-6.18	0.2
43	Akr7a5	SID152329281	no change with or without drug	0.22	-0.67	0.79	0.96
44	Smyd1	SID152290406	no change with or without drug	-0.45	0.17	-0.45	0.9
45	Tigd4	SID152263058	no change with or without drug	0.45	-0.17	0.67	0.98
46	Prr14l	SID152264220	no change with or without drug	1.8	0	2.02	1.1
47	Slc30a1	SID152276311	no change with or without drug	-0.45	-0.17	-0.22	0.9
48	Adam3	SID152285491	no change with or without drug	-0.67	0	-0.56	0.88
49	Atrip	SID152276152	low cell count without drug only	-0.22	-2.19	1.57	0.92
50	Appl2	SID152264861	no change with or without drug	-0.45	0.34	-0.56	0.9

Ordered by “z-score of drug to no-drug ratio” (highest first): 8 of the entries above.
Gene	PubChem SID	combined z-score class	viability z-score with doxorubicin	viability z-score without drug	z-score of drug to no-drug ratio	doxorubicin viability vs non-targeting
Pnpla6	SID152288109	no change with or without drug	0.22	-1.18	1.24	0.96
Airn	SID152327131	no change with or without drug	-0.56	-0.84	0.11	0.89
Nt5dc1	SID152263490	no change with or without drug	0.22	0.51	0	0.96
Defb2	SID152261344	no change with or without drug	0	0.34	-0.11	0.94
Exoc8	SID152332137	no change with or without drug	-0.22	0.34	-0.34	0.92
Gm20735	SID152273690	low cell count with doxorubicin only (active)	-2.02	-1.35	-1.24	0.76
Tspan7	SID152299753	no change with or without drug	-1.35	0.84	-1.8	0.82
Arhgef18	SID152275415	low cell count with doxorubicin only (active)	-2.47	-1.01	-1.91	0.72
